Source: the supplement of paper PMC10735217
Where a name gives a salt, the structure may show the parent alone. Some of the results follow. Repeats in this data set agree poorly, so a single value says little.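 The human kidney-derived cells carry a stably integrated construct of eight TEAD-binding elements driving luciferase, read by luminescence in a drug-repurposing library screen. A compound counts as a hit when its signal is more than five robust Z scores above the plate mean.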

Tested on: HEK293A TEAD-LUC reporter
Test: TEAD-luciferase reporter activity (YAP activation), robust Z score vs plate; higher = stronger YAP/TEAD activation
Details: 24 h

Compound | TEAD-luciferase reporter activity (compound concentration: 200 nM) | TEAD-luciferase reporter activity (compound concentration: 2 uM) | TEAD-luciferase reporter activity (compound concentration: 10 uM)
CC(C)c1nnc(-c2ccc(-c3ccccc3)nc2)n1-c1cccc2nonc12 | inactive: 0.431 | inactive: -0.0498 | inactive: -1.94
O=C(O)[C@@H](O)[C@H](O)[C@H](O)[C@@H](O)C(=O)O [Mucic acid] | inactive: 2.19 | inactive: -1.22 | inactive: -0.228
COC1(C2=NCCN2)COc2ccccc2O1 (configuration not stated) | inactive: -1.2 |  | inactive: 0.889
COC1(C2=NCCN2)COc2ccccc2O1 (configuration not stated) [Methoxy-idazoxan] |  | inactive: 1.29 | 
OC(=O)C[C@@H]1CCC(CC1)[C@H]1CCCN1c1ncc(cc1CN(c1nnn(n1)C)Cc1cc(cc(c1)C(F)(F)F)C(F)(F)F)C(F)(F)F (some centres not stated) [analog of TAK-472] | inactive: -1.28 | inactive: -0.128 | inactive: 1.27
COc1cc(Cl)cc(C(C)Nc2cc(N3CCNCC3)ccc2S(C)(=O)=O)c1OC (configuration not stated) | inactive: -1.57 | inactive: -1.44 | inactive: 0.862
CC1CCCC(C)N1CCCC(O)(c1ccccc1)c1ccccn1 (configuration not stated) | inactive: -0.27 | inactive: 0.299 | active: 7
CCn1cc([C@@]2(c3nn(C)c(=O)o3)N[C@@H](c3nc(-c4ccc(F)cn4)c[nH]3)Cc3c2[nH]c2ccccc32)cn1 | inactive: -0.961 | inactive: 0.134 | inactive: 0.777
FC(F)(F)C(F)(F)C(F)(F)N(C(F)(F)C(F)(F)C(F)(F)F)C(F)(F)C(F)(F)C(F)(F)F [Perfluamine] | inactive: -0.14 | inactive: -0.145 | inactive: 1.16
CO[C@H]1CO[C@H]2[C@@H]1OC[C@H]2OC [dimethyl isosorbide] |  | inactive: -1.49 | 
CO[C@H]1CO[C@H]2[C@@H]1OC[C@H]2OC [dimethyl isosorbide, ResCo] | inactive: 0.304 |  | inactive: 1.79
O=C(OC[C@H]1O[C@@H](Oc2ccccc2CO)[C@H](O)[C@@H](O)[C@@H]1O)c1ccccc1 | inactive: -0.886 | inactive: -0.56 | inactive: 0.919
CN1CCN(c2ncc(Sc3cccc(NC(=O)CN)c3)c(OCc3ccccc3)n2)CC1 | inactive: -0.937 | inactive: -1.59 | inactive: 1.96
CCS(=O)(=O)c1ccc2oc(-c3ccc4ccccc4c3)nc2c1 [Ezutromid] |  | inactive: -0.0399 | 
CCS(=O)(=O)c1ccc2oc(-c3ccc4ccccc4c3)nc2c1 | active: 5.73 |  | inactive: -0.452
CCCCCCc1nc2c([nH]1)C(=O)N(C)C1=N[C@@H]3CCC[C@@H]3N12 | inactive: 1.16 | inactive: 1.98 | active: 7.54
CCCCCCCCCCCCCCCCCC(=O)OC(CO)CO | inactive: -1.45 | inactive: -1.45 | inactive: -0.565
COc1cc2c(cc1OC)[C@H]1C[C@@H](OC(=O)[C@@H](N)C(C)C)[C@H](CC(C)C)CN1CC2 | inactive: -2.83 | inactive: -1.25 | inactive: 0.362
C=CCn1nc(-c2ccc(Cl)cc2)n(C)c1=O | inactive: -1.29 | inactive: -1.55 | inactive: 2.51
CC(C)CC(=O)O[C@H](CC(=O)OC/C=C1\OC(=O)c2ccc(Cl)cc21)C[N+](C)(C)C | inactive: -1.16 | inactive: -2.06 | inactive: 0.447
CC(=O)O[C@]1(C(=O)COC(=O)CCC(=O)O)CC[C@H]2[C@@H]3CCC4=CC(=O)CCC4(C)[C@H]3CCC21C (some centres not stated) | inactive: -0.632 | inactive: 0.457 | inactive: 0.479
COc1ccc(C2Sc3ccccc3N(CCN(C)C(C)C)C(=O)C2OC(C)=O)cc1 (configuration not stated) | inactive: 0.517 | inactive: -1.16 | inactive: -1.27
[O-]Cl |  | inactive: 1.08 | inactive: -0.797
Cn1c(=O)cnn(CCCCN2CCN(c3ncccn3)CC2)c1=O | inactive: -1.19 | inactive: -1.54 | inactive: 0.625
CC(C)CC(=O)O[C@H](CC(=O)[O-])C[N+](C)(C)C | inactive: -0.474 | inactive: -2.28 | inactive: 0.73
C/C=C/C(=O)N(CC)C(CC)C(=O)N(C)C (configuration not stated) | inactive: -1.1 | inactive: 0.476 | inactive: 0.798
C[C@@H]1C[C@H]2[C@@H]3CCC4=CC(=O)C=C[C@]4(C)[C@@]3(F)[C@@H](O)C[C@]2(C)[C@@]1(OC(=O)C1CC1)C(=O)COC(=O)C1CCCCC1 | inactive: -0.363 | inactive: 0.937 | inactive: 4.45

Two entries from above, in markdown.

| Compound | TEAD-luciferase reporter activity (compound concentration: 200 nM) | TEAD-luciferase reporter activity (compound concentration: 2 uM) | TEAD-luciferase reporter activity (compound concentration: 10 uM) |
| --- | --- | --- | --- |
| COC1(C2=NCCN2)COc2ccccc2O1 (configuration not stated) | inactive: -1.2 |  | inactive: 0.889 |
| CCS(=O)(=O)c1ccc2oc(-c3ccc4ccccc4c3)nc2c1 | active: 5.73 |  | inactive: -0.452 |

More records follow:

Compound | TEAD-luciferase reporter activity (compound concentration: 200 nM) | TEAD-luciferase reporter activity (compound concentration: 2 uM) | TEAD-luciferase reporter activity (compound concentration: 10 uM)
CC(C)C(=O)OC[C@@]1(CCl)O[C@@H](n2ccc(N)nc2=O)[C@H](F)[C@@H]1OC(=O)C(C)C | inactive: -0.633 | inactive: 0.441 | inactive: 0.828
Nc1ncnc2c1nc(Cl)n2C1OC2COP(=O)(O)OC2C1O (configuration not stated) [tocladesine] | inactive: 0.236 | inactive: -0.696 | inactive: 1
O=C(O)CNC(=O)CCSC(=O)c1ccccc1O [metabolite of EP-322] | inactive: -1.65 | inactive: -1.67 | inactive: -0.487
CCOC(=O)NNc1nncc2ccccc12 | inactive: -0.0062 | inactive: -0.0368 | inactive: 2.99
Oc1ccc(Cl)c2cccnc12 | inactive: -0.961 | inactive: 3.4 | inactive: -0.647
Cc1ccccc1OCC(=O)N[C@@H](CC(C)C)C(=O)N[C@@H](Cc1ccc(OC(=O)N2CCC(C(N)=O)CC2)cc1)C(=O)O | inactive: -0.0407 | inactive: -1.53 | inactive: 2.68
CC1=C(C(=O)OCCN2C(=O)c3ccccc3S2(=O)=O)C(c2cccc([N+](=O)[O-])c2)C(C(=O)OCC2CCCCO2)=C(C)N1 (configuration not stated) | inactive: -2.17 | inactive: -0.916 | inactive: 1.78
O=[N+]([O-])c1ccc(NC(=S)N2CCN(c3ccccc3F)CC2)cc1 | inactive: -0.192 | inactive: -0.198 | inactive: -2.07
Cc1ccccc1Nc1ccccc1C(=O)N1CCCCC1 | inactive: -0.953 | inactive: -0.82 | inactive: 0.468
CC#CC(C)Oc1cc(N)c(Cl)cc1C(=O)NC1C[C@H]2CC[C@@H](C1)N2C (some centres not stated) | inactive: -1.92 | inactive: -0.411 | inactive: 0.472
N#Cc1ccc(COC[C@H]2O[C@@H](n3c(NCc4ccc(Cl)c(Cl)c4)nc4c(N)ncnc43)[C@H](O)[C@@H]2O)cc1 | inactive: -1.41 | inactive: -0.0434 | inactive: -1.15
CC(=O)Nc1ccc(/C=N/NC(N)=S)cc1F | active: 5.19 | inactive: 0.253 | inactive: 0.788
COCCOC(=O)C(C#N)=Cc1ccc(N2CCCCC2)cc1 | inactive: -1.18 | inactive: 2.63 | inactive: 4.81
Nc1ncn([C@H]2C[C@H](OP(=O)(O)OC[C@H]3O[C@@H](n4cnc5c(=O)nc(N)[nH]c54)C[C@@H]3O)[C@@H](CO)O2)c(=O)n1 [Guadecitabine sodium] | inactive: 0.451 |  | inactive: 0.808
CC(C)(C)[C@@H]1NC(=O)O[C@@H]2CCC[C@H]2OC/C=C/C(F)(F)c2nc3ccccc3nc2O[C@@H]2C[C@@H](C(=O)N[C@]3(C(=O)NS(=O)(=O)C4(C)CC4)C[C@H]3C(F)F)N(C2)C1=O [Glecaprevir] | inactive: -0.534 | inactive: -0.874 | inactive: -0.0851
CN(CC(O)CO)C(=O)c1c(I)c(NC(=O)C(CO)CO)c(I)c(C(=O)N(C)CC(O)CO)c1I (configuration not stated) [Iobitridol] | inactive: -0.493 | inactive: -0.824 | inactive: -0.272
Cc1c(-c2cnccn2)ssc1=S [oltipraz] | inactive: 0.173 | inactive: 3.47 | inactive: -1.57
CO/N=C(\C(=O)N[C@@H]1C(=O)N2C(C(=O)O)=C(C[n+]3ccc(N)n3CCO)CS[C@H]12)c1csc(N)n1 [Cefoselis sulfate] | inactive: 0.0492 | inactive: -0.26 | inactive: 0.271
CCOc1ccc2c(c1)O/C(=C\c1ccc(OC)c(OC)c1OC)C2=O | inactive: 0.498 | inactive: 0.831 | inactive: 0.754
CC[C@H]1OC(=O)[C@H](C)C(=O)[C@H](C)[C@@H](O[C@@H]2O[C@H](C)C[C@H](N(C)C)[C@H]2O)[C@](C)(OC)C[C@@H](C)C(=O)[C@H](C)[C@H]2N(C3CN(Cc4c(O)cnc5cccnc45)C3)C(=O)O[C@]12C | inactive: -1.54 | inactive: 0.888 | inactive: -1.14
NCC(=O)N[C@@H](CCC(N)=O)C(=O)O | inactive: -0.158 | inactive: -1.45 | inactive: 1.42
NCCCCCCN [Hexamethylenediamine] | inactive: -0.607 |  | inactive: -0.383
CCC(=O)NC[C@H]1CN(c2ccc([C@H]3CC[S@+]([O-])CC3)c(F)c2)C(=O)O1 | inactive: -0.6 | inactive: 0.0802 | inactive: -0.978
COc1cc([C@@H]2c3cc4c(cc3[C@@H](O[C@@H]3O[C@@H]5CO[C@@H](C)O[C@H]5[C@H](O)[C@H]3O)[C@H]3COC(=O)[C@H]23)OCO4)cc(OC)c1OP(=O)(O)O [Etoposide phosphate] | inactive: -0.71 | inactive: 2.86 | inactive: -1.1
CC(C)(C)c1ccc(O)c(/C(=N/O)c2ccccc2)c1 | inactive: 0.688 | inactive: 1.38 | inactive: -0.341
CCCCCCCCCC(=O)OC1(c2ccc(Cl)cc2)CCN(CCCC(=O)c2ccc(F)cc2)CC1 [Haloperidol decanoate] | inactive: -1.74 | inactive: -0.793 | inactive: 1.59
